This note sets out measurements from paper PMC3033427, “Role of the Small GTPase Rho3 in Golgi/Endosome Trafficking through Functional Interaction with Adaptin in Fission Yeast” (PLoS ONE, 2011).

Results are given in words; binding and its absence hold for the method and conditions named. In cells and extracts the contact can be indirect. Some entries that bind do so weakly or less than the wild type. Tags and fused reporters may be left off the sequences shown.

What all share (assay): pull-down; lysates of S. pombe cells expressing GFP-Rho3 or its mutants incubated with purified GST-fused adaptin subunit or control GST; precipitated by glutathione beads, SDS-PAGE, anti-GFP and anti-GST blots; only the target purified
The target in test [1] is T1, GST-Apl2 (purified full-length Apl2 fused to GST) (S. pombe) (UniProt O43079).
T1 sequence: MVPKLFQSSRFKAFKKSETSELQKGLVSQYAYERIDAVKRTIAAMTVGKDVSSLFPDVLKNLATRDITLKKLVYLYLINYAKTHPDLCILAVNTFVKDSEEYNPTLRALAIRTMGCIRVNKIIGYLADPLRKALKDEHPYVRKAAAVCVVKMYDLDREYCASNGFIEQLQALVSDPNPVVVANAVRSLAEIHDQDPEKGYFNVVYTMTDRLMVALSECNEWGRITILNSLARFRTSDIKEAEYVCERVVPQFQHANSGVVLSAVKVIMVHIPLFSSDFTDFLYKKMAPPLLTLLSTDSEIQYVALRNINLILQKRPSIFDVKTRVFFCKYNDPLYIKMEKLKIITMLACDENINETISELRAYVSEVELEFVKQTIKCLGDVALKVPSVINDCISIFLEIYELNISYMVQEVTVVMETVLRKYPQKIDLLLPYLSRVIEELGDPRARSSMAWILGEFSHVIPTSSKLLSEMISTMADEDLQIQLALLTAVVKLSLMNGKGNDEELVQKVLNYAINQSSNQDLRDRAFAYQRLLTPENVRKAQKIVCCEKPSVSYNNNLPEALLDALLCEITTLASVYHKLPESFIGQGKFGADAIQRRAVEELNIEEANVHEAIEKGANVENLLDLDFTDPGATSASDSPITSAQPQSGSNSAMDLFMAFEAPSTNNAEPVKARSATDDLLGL

For test [2], the target named is T2, Apl4-GST (purified full-length Apl4 fused to GST) (S. pombe) (UniProt Q9UU81).
T2 sequence: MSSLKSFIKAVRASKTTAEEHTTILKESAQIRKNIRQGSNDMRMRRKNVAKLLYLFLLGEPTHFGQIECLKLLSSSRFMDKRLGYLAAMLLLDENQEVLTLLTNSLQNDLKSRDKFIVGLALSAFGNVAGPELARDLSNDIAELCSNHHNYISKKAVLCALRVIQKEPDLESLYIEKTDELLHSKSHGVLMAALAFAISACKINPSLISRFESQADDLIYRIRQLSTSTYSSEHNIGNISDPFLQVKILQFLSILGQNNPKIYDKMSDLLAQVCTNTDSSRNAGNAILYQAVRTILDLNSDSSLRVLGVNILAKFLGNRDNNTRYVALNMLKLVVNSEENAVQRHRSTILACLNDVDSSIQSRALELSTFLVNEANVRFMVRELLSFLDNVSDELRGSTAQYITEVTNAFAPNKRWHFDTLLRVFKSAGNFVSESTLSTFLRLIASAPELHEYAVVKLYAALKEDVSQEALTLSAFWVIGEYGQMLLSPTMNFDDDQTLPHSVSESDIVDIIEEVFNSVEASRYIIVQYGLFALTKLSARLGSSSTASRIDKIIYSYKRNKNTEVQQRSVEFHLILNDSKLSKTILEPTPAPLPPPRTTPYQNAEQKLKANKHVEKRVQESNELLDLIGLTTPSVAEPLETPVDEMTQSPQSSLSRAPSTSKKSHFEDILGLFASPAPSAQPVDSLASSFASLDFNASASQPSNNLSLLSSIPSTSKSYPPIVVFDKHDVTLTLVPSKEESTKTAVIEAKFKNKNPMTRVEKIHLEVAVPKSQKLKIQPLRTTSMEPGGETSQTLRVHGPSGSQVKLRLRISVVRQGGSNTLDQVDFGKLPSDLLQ

Test [3] deals with T3, GST-Aps1 (purified full-length Aps1 fused to GST) (S. pombe) (UniProt Q9P7N2).
T3 sequence: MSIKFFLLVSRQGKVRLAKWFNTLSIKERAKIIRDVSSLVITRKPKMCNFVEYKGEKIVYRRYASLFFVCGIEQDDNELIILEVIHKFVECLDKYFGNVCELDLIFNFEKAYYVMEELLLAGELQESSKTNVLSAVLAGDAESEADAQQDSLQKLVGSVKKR

Test [4] concerns the target T4, Apm1-GST (purified full-length Apm1 fused to GST) (S. pombe) (UniProt Q9HFE5).
T4 sequence: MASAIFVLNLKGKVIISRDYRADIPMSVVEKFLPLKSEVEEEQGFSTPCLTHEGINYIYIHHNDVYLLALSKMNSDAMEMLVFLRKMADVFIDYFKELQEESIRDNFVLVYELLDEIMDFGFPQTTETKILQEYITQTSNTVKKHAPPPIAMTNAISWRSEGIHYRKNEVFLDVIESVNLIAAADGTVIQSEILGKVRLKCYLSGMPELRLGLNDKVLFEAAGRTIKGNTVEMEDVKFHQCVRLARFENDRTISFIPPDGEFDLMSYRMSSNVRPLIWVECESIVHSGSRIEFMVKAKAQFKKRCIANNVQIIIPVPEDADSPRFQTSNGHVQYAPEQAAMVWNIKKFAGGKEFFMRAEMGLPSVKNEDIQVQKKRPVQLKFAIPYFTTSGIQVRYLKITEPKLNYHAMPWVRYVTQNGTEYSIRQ

B1: GFP-Rho3 (wild-type Rho3 fused to GFP) (natural protein, S. pombe, UniProt O13928 1-205, looked up)
chain: MSSCFGSKKKPIYRKIVILGDGAAGKTSLLNVFTKGYFPQVYEPTIFENYIHDIFVDGNSIELSLWDTAGQEEYDQLRSLSYSDTHVIMICFAVDSRDSLENVITKWLPEVSSNCPGVKLVLVALKCDLRGADEEQVDHSKIIDYEEGLAAAKKINAVRYLECSAKLNRGVNEAFTEAARVALAAQPRGTKDGADESHGTGCIIA
notes: Rho3, Rho-family small GTPase of S. pombe (SPAC23C4.08); complete open reading frame amplified from genomic DNA, first methionine as in the Sanger Institute database; The name GFP-Rho3 puts GFP at the N-terminus, but the methods say the ORF 'was ligated to the N-terminus of the GFP'; also called GFP-fused Rho3; source: S. pombe cells, overexpressed from the inducible nmt1 promoter, …
In the case of B1, the binding result in test [1], in test [2], in test [3] and in test [4] was “binds” in each case.

B2: GFP-Rho3T27N (GDP-locked variant of Rho3 fused to GFP) (protein, UniProt O13928 1-205)
chain: MSSCFGSKKKPIYRKIVILGDGAAGKNSLLNVFTKGYFPQVYEPTIFENYIHDIFVDGNSIELSLWDTAGQEEYDQLRSLSYSDTHVIMICFAVDSRDSLENVITKWLPEVSSNCPGVKLVLVALKCDLRGADEEQVDHSKIIDYEEGLAAAKKINAVRYLECSAKLNRGVNEAFTEAARVALAAQPRGTKDGADESHGTGCIIA
Regarding B2, the binding result in test [4] is “binds weakly”.

B3: GFP-Rho3E48V (effector domain mutant of Rho3 fused to GFP) (natural protein, S. pombe, UniProt O13928 1-205, looked up)
chain: MSSCFGSKKKPIYRKIVILGDGAAGKTSLLNVFTKGYFPQVYEPTIFVNYIHDIFVDGNSIELSLWDTAGQEEYDQLRSLSYSDTHVIMICFAVDSRDSLENVITKWLPEVSSNCPGVKLVLVALKCDLRGADEEQVDHSKIIDYEEGLAAAKKINAVRYLECSAKLNRGVNEAFTEAARVALAAQPRGTKDGADESHGTGCIIA
notes: Rho3 of S. pombe (SPAC23C4.08), complete open reading frame, Glu48 changed to Val by site-directed mutagenesis; Analogue of the budding yeast rho3-V51 mutant; also called Rho3EV; GFP-Rho3EV; source: S. pombe cells, overexpressed from the inducible nmt1 promoter, in lysate (pull-down); not shown: GFP (S65T), N-terminal, kept
As to B3, in test [4], the binding result is given as “binds weakly”.

B4: GFP-Rho3G22V (GTP-locked variant of Rho3 fused to GFP) (natural protein, S. pombe, UniProt O13928 1-205, looked up)
chain: MSSCFGSKKKPIYRKIVILGDVAAGKTSLLNVFTKGYFPQVYEPTIFENYIHDIFVDGNSIELSLWDTAGQEEYDQLRSLSYSDTHVIMICFAVDSRDSLENVITKWLPEVSSNCPGVKLVLVALKCDLRGADEEQVDHSKIIDYEEGLAAAKKINAVRYLECSAKLNRGVNEAFTEAARVALAAQPRGTKDGADESHGTGCIIA
notes: Rho3 of S. pombe (SPAC23C4.08), complete open reading frame, Gly22 changed to Val by site-directed mutagenesis; also called Rho3GV; GFP-Rho3GV; source: S. pombe cells, overexpressed from the inducible nmt1 promoter, in lysate (pull-down); not shown: GFP (S65T), N-terminal, kept
With B4, the binding entry in test [4] was “binds”.
